# About 2,100 (0.66%) of roughly 320,000 compounds were called active. The shares of active, inactive and inconclusive entries below differ from those in the screen. Calls come from the whole dose curve; as a rule, active = well fitted inhibition curve with a large enough effect in the signal ratio, with a control signal flat (not every such curve was filed as active); inconclusive = small, poorly fitted or top-dose-only effect, or effect the other way, or a change in a side signal; inactive = flat fitted curve, though single readings scatter; the % refers to the signal ratio. Where the call is inconclusive, the potency comes from a doubtful curve fit.
# Assay: qHTS Assay for Lipid Storage Modulators in Drosophila S3 Cells
# Conditions: BODIPY lipid droplet fluorescence, 18-24 h, cells fed with added oleic acid; lipid storage change, negative = inhibition: at 46.1 µM (top of the series) unless noted
# In short: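 Drosophila S3 cells got compounds at several concentrations plus oleic acid (400 uM solution). Laser-scanning cytometry with 488 nm excitation read lipid droplets at 500-530 nm and cells at 575-640 nm. Percent activity was relative to 20 uM Triacsin C.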
# % is set by controls: 0 for no effect and ±100 for the full control effect; potency is the fitted concentration of half-maximal effect.
Compound,"lipid storage change, negative = inhibition",Potency
CC(=O)Oc1ccc2oc(C)c(C(=O)N3CCOCC3)c2c1,inconclusive: 8.17%,
O=C(CC(=O)Nc1ccccc1C(F)(F)F)Nc1ccccc1C(F)(F)F,inconclusive: 89.9%,
O=S(=O)(/C=C/c1ccccc1)Oc1ccccc1,,"inconclusive: 1.3 µM [falling, full curve]"
CCc1nnc(NC(=O)CCC(=O)NCCc2ccccc2)s1,inconclusive: 26.6%,
Cc1ccccc1NC(=O)CSc1nnc(-c2ccoc2C)n1CCc1ccccc1,inconclusive: 30.6%,
O=C(Cn1ncc2c3ccccc3n(Cc3ccccc3F)c2c1=O)NCCN1CCOCC1,inconclusive: 130%,
Cc1ccccc1N(Cc1cc(=O)[nH]c2ccccc12)C(=O)C(C)C,inconclusive: -0.291%,
Cc1ccc(NC(=O)NCC2CCN(Cc3cccc(Cl)c3)CC2)c(Cl)c1,inconclusive: 21.9%,
CCOC(=O)C1CCN(C(=O)COc2ccc3c(c2)OCO3)CC1,,"inconclusive: 0.58 µM [activator, single point]"
O=C(CN(Cc1ccccc1)C(=O)CNS(=O)(=O)c1ccc(F)cc1)NCc1ccco1,inconclusive: 73.9%,
O=[N+]([O-])c1cccc(CN2CCN(c3cccc4[nH]ccc34)CC2)c1,inconclusive: 11.4%,
Cc1oc(-c2cccc(Cl)c2)nc1CS(=O)(=O)CC(=O)NCCN1CCCC1,inconclusive: 24.3%,
Cc1ccc(SCC(=O)NCC2COc3ccccc3O2)cc1 (configuration not stated),inconclusive: 2.48%,
O=S(=O)(c1ccc(Cl)cc1)N1CCNCC1,inconclusive: 0.429%,
CCOC(=O)c1cnn(CCOC(=O)C2CC2)c1NC(=O)C1CC1,inconclusive: 22.6%,
Cc1cc2nc(-c3ccccn3)c(-c3ccccn3)nc2cc1C,inconclusive: -79%,
COc1ccccc1N=c1sc2ccccc2n1C,,"inconclusive: 0.517 µM [falling, single point]"
CCCCCC1CC(COc2ccccc2)OC1=O (configuration not stated),inconclusive: 8.4%,
COc1ccc(/C(O)=C2\C(=O)C(=O)N(Cc3ccco3)C2c2cc(OC)ccc2OC)cc1 (configuration not stated),inconclusive: 7.12%,
COc1cc(C)nc(N2CCC(C(=O)NCC3CCCO3)CC2)n1 (configuration not stated),inconclusive,
CC(C)(C)C(=O)COC(=O)CNC(=O)c1ccc(Oc2ccccc2)cc1,inconclusive: -5.02%,
Cc1cc(C)cc(OCC(=O)OCC(=O)c2c(N)n(C)c(=O)n(C)c2=O)c1,,"inconclusive: 25.9 µM [falling, single point]"
O=C(O)CN1C(=O)/C(=C\c2cc(Br)ccc2OCc2ccccc2F)SC1=S,inconclusive: 37.7%,
O=C(c1ccc(S(=O)(=O)N2CCCCCC2)cc1)N1CCN(c2ccccc2)CC1,,"inconclusive: 7.31 µM [activator, partial curve]"
Cc1ccc2cc(CCNC(=O)c3ccc(S(=O)(=O)N4CCOCC4)cc3)c(=O)[nH]c2c1,inconclusive: -28.7%,
Cc1ccc(C(=O)N(CCN(C)C)CC2CCCN(Cc3ccccc3F)C2)cc1C (configuration not stated),inconclusive: 30.1%,

# Pulled by structure from the list above:
Compound,"lipid storage change, negative = inhibition",Potency
Cc1ccccc1N(Cc1cc(=O)[nH]c2ccccc12)C(=O)C(C)C,inconclusive: -0.291%,
Cc1ccc(C(=O)N(CCN(C)C)CC2CCCN(Cc3ccccc3F)C2)cc1C (configuration not stated),inconclusive: 30.1%,
O=C(c1ccc(S(=O)(=O)N2CCCCCC2)cc1)N1CCN(c2ccccc2)CC1,,"inconclusive: 7.31 µM [activator, partial curve]"

# Going on with the list:

Compound,"lipid storage change, negative = inhibition",Potency
Cn1c(=O)c(=O)n(C)c2cc(N3CCCC3)c(NS(=O)(=O)c3ccc(Cl)cc3)cc21,,"inconclusive: 4.61 µM [falling, partial curve]"
CCCn1c(=O)[nH]c(=O)c2c1nc(-c1ccc(C#N)cc1)n2CCOC,inconclusive: -8.65%,
O=C(Nc1ccc(Oc2cccc(C(F)(F)F)c2)nc1)c1cccs1,,"inconclusive: 5.8 µM [falling, full curve]"
Cc1ccc2c(CN3C(=O)NC(C)(c4ccc5c(c4)OCO5)C3=O)cc(=O)oc2c1 (configuration not stated),inconclusive: -31.2%,
CCOc1ccc(C(=O)NCCCCNC(=O)c2ccc(OCC)cc2)cc1,inconclusive: 3.37%,
CC(=O)Nc1ccc2nc3ccccc3nc2c1,inconclusive: -4.74%,
COc1cc(-n2c(=O)c3ccccc3n(CC(=O)c3ccc(Br)cc3)c2=O)cc(OC)c1OC,inactive,
Cc1ccc(C(C)C)c(OCC(=O)Nc2ccc3c(c2)nc(CN2CCCC2)n3C)c1,,"inconclusive: 29.1 µM [rising, single point]"
O=C(Cn1nnc2ccccc2c1=O)N1CCOCC1,inconclusive: 6.61%,
COc1ccc(Cl)cc1NC(=S)NCCSc1ccc(C)cc1,inconclusive: -20%,
COc1cc2ccccc2cc1C(=O)NNC(=O)c1ccccc1O,inconclusive: -31.9%,
CCOc1cc(/C=N/O)cc(Br)c1OCC(=O)NCc1ccccc1,,"inconclusive: 14.6 µM [activator, partial curve]"
CC1COc2ccccc2N1S(=O)(=O)c1ccccc1 (configuration not stated),inconclusive: 5.98%,
CC(=O)c1ccc(N2CCN(S(=O)(=O)c3c(C)[nH]c(C)c3C(=O)N3CCCC3)CC2)cc1,inconclusive: 206%,
CCOc1ccc(Br)cc1S(=O)(=O)N1CCCN(C)CC1,inconclusive: -8.68%,
Cc1ccc(/C=N/NC(=O)C2(C)CC2(Br)Br)cc1 (configuration not stated),inconclusive: -4.86%,
N#C/C(=C\c1cccs1)C(=O)Nc1nccs1,inconclusive: -20.3%,
CCCCn1nnnc1NCc1cccnc1,,"inconclusive: 6.51 µM [rising, single point]"
Cn1cnc2c(=O)[nH]cc([N+](=O)[O-])c21,inconclusive: 24.1%,
CC(C)(C)C#CC(CCc1ccccc1)OS(N)(=O)=O (configuration not stated),,"inconclusive: 0.58 µM [activator, single point]"
CC(C)(C)c1ccc(-c2noc(CCC(=O)NCc3ccco3)n2)cc1,inconclusive: -75%,
CC(Oc1ccccc1)C(=O)N=Nc1c(O)[nH]c2ccc(Br)cc12 (configuration not stated),inconclusive: 18.6%,
O=C(CN1C2=NCCN2c2ccccc21)c1ccc(Br)s1,inconclusive: 14.6%,
O=C(Nc1ccc(C(=O)O)cc1)/C(=C\C=C\c1ccccc1)NC(=O)c1ccccc1Cl,,"inconclusive: 0.731 µM [falling, single point]"
O=[N+]([O-])c1ccc(O)c2ncccc12,,"inconclusive: 16.4 µM [falling, single point]"
COc1ccccc1NC(=O)c1cc(C(=O)O)ccc1C(=O)O,inconclusive: -37.2%,

# Source: PubChem BioAssay AID2685 (National Center for Advancing Translational Sciences (NCATS), 2010)
